According to the supplement of paper PMC5355238:
Structures can show the parent of a compound that is named as a salt. The list shows a part of the results. Most values lie at the level of the controls, where differences are scatter.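 Reh, a human leukemia cell line, is read out by flow cytometry as the median γH2AX antibody signal in S-phase cells; the score counts standard deviations from the median difference of each paired plate set. Scores above 2.5 were candidate hits; scores below -2 mark compounds lowering MK1775-induced damage.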

System: Reh
Assay: Z' of S-phase gammaH2AX difference (drug + MK1775 minus drug alone) (Z-score); higher = stronger synergistic S-phase DNA damage with MK1775
Details: MK1775 concentration 400 nM; first compound 10 µM; 4 h

| SMILES | Z' of S-phase gammaH2AX difference (Z-score) |
| --- | --- |
| NC[C@@H]1O[C@H](O[C@H]2[C@@H](O)[C@H](O[C@@H]3[C@@H](O)[C@H](N)C[C@H](N)[C@H]3O[C@H]3O[C@H](CO)[C@@H](O)[C@H](O)[C@H]3N)O[C@@H]2CO)[C@H](N)[C@@H](O)[C@@H]1O [Paromomycin sulfate] + C=CCn1c(=O)c2cnc(Nc3ccc(N4CCN(C)CC4)cc3)nc2n1-c1cccc(C(C)(C)O)n1 [MK1775] | inactive: 0.5 |
| CC[C@]1(O)C[C@H]2CN(CCc3c([nH]c4ccccc34)[C@@](C(=O)OC)(c3cc4c(cc3OC)N(C=O)[C@H]3[C@@](O)(C(=O)OC)[C@H](OC(C)=O)[C@]5(CC)C=CCN6CC[C@]43[C@@H]65)C2)C1 [Vincristine] + C=CCn1c(=O)c2cnc(Nc3ccc(N4CCN(C)CC4)cc3)nc2n1-c1cccc(C(C)(C)O)n1 [MK1775] | inactive: -0.0288 |
| CC[C@]1(O)C[C@H]2CN(CCc3c([nH]c4ccccc34)[C@@](C(=O)OC)(c3cc4c(cc3OC)N(C=O)[C@H]3[C@@](O)(C(=O)OC)[C@H](OC(C)=O)[C@]5(CC)C=CCN6CC[C@]43[C@@H]65)C2)C1 [Vincristine sulfate] + C=CCn1c(=O)c2cnc(Nc3ccc(N4CCN(C)CC4)cc3)nc2n1-c1cccc(C(C)(C)O)n1 [MK1775] | inactive: 0.00932 |
| CCOc1ccc(Nc2nc(-c3c(C)nc4ccccn34)cs2)cc1 + C=CCn1c(=O)c2cnc(Nc3ccc(N4CCN(C)CC4)cc3)nc2n1-c1cccc(C(C)(C)O)n1 [MK1775] | inactive: -0.387 |
| CN[C@@H](C)C(=O)N[C@H]1CN(C(=O)CC(C)C)CC[C@H]2CC[C@@H](C(=O)NC(c3ccccc3)c3ccccc3)N2C1=O + C=CCn1c(=O)c2cnc(Nc3ccc(N4CCN(C)CC4)cc3)nc2n1-c1cccc(C(C)(C)O)n1 [MK1775] | inactive: 0.755 |
| COc1ccccc1N1CCN(CCCCN2C(=O)c3ccccc3C2=O)CC1 [NAN-190 hydrobromide] + C=CCn1c(=O)c2cnc(Nc3ccc(N4CCN(C)CC4)cc3)nc2n1-c1cccc(C(C)(C)O)n1 [MK1775] | inactive: -0.0582 |
| Cc1cccc(C)c1OCC(C)N (stereo not drawn) [Mexiletene hydrochloride] + C=CCn1c(=O)c2cnc(Nc3ccc(N4CCN(C)CC4)cc3)nc2n1-c1cccc(C(C)(C)O)n1 [MK1775] | inactive: -0.0873 |
| CCN(CC)CCNC(=O)c1c(C)[nH]c(/C=C2\C(=O)Nc3ccc(F)cc32)c1C [Sunitinib Malate (Sutent)] + C=CCn1c(=O)c2cnc(Nc3ccc(N4CCN(C)CC4)cc3)nc2n1-c1cccc(C(C)(C)O)n1 [MK1775] | inactive: -0.909 |
| COc1ccc(/C=C/C(=O)Nc2ccccc2C(=O)O)cc1OC [Tranilast] + C=CCn1c(=O)c2cnc(Nc3ccc(N4CCN(C)CC4)cc3)nc2n1-c1cccc(C(C)(C)O)n1 [MK1775] | inactive: -1.41 |
| Oc1ccc(/C=C/c2cc(O)cc(O)c2)cc1 [Resveratrol] + C=CCn1c(=O)c2cnc(Nc3ccc(N4CCN(C)CC4)cc3)nc2n1-c1cccc(C(C)(C)O)n1 [MK1775] | inactive: -0.374 |
| CCOc1cc2ncc(C#N)c(Nc3ccc(F)c(Cl)c3)c2cc1NC(=O)/C=C/CN(C)C [Pelitinib (EKB-569)] + C=CCn1c(=O)c2cnc(Nc3ccc(N4CCN(C)CC4)cc3)nc2n1-c1cccc(C(C)(C)O)n1 [MK1775] | inactive: 1.14 |
| CCCc1c(-c2ccc(O)cc2)nn(-c2ccc(O)cc2)c1-c1ccc(O)cc1 [1,3,5-tris(4-hydroxyphenyl)-4-propyl-1H-pyrazole] + C=CCn1c(=O)c2cnc(Nc3ccc(N4CCN(C)CC4)cc3)nc2n1-c1cccc(C(C)(C)O)n1 [MK1775] | inactive: 0.697 |
| C=CCc1cccc(/C=N/NC(=O)CN2CCN(Cc3ccccc3)CC2)c1O + C=CCn1c(=O)c2cnc(Nc3ccc(N4CCN(C)CC4)cc3)nc2n1-c1cccc(C(C)(C)O)n1 [MK1775] | inactive: 2.19 |
| O=C(O)C1CCCNC1 (stereo not drawn) [(?)-Nipecotic acid] + C=CCn1c(=O)c2cnc(Nc3ccc(N4CCN(C)CC4)cc3)nc2n1-c1cccc(C(C)(C)O)n1 [MK1775] | inactive: 0.12 |
| CC[N+](CC)(CC)CCOc1ccc(/C=C/c2ccccc2)cc1 + C=CCn1c(=O)c2cnc(Nc3ccc(N4CCN(C)CC4)cc3)nc2n1-c1cccc(C(C)(C)O)n1 [MK1775] | inactive: 0.247 |
| CC(Oc1ccc(Oc2cnc3ccc(Cl)cc3n2)cc1)C(=O)O (stereo not drawn) + C=CCn1c(=O)c2cnc(Nc3ccc(N4CCN(C)CC4)cc3)nc2n1-c1cccc(C(C)(C)O)n1 [MK1775] | inactive: 2.45 |
| CN(C)C(=O)C(CCN1CCC(O)(c2ccc(Cl)cc2)CC1)(c1ccccc1)c1ccccc1 [Loperamide hydrochloride] + C=CCn1c(=O)c2cnc(Nc3ccc(N4CCN(C)CC4)cc3)nc2n1-c1cccc(C(C)(C)O)n1 [MK1775] | inactive: -1.1 |
| N=C(N)NCCSSCCNC(=N)N [Guanidinoethyl disulfide dihydrobromide] + C=CCn1c(=O)c2cnc(Nc3ccc(N4CCN(C)CC4)cc3)nc2n1-c1cccc(C(C)(C)O)n1 [MK1775] | inactive: 0.381 |
| COc1cc2c(N3CCN(C(=O)Nc4ccc(OC(C)C)cc4)CC3)ncnc2cc1OCCCN1CCCCC1 [Tandutinib (MLN518)] + C=CCn1c(=O)c2cnc(Nc3ccc(N4CCN(C)CC4)cc3)nc2n1-c1cccc(C(C)(C)O)n1 [MK1775] | inactive: 0.131 |
| Cc1cc(O)c2c(c1)C(=O)c1cccc(O)c1C2=O [Chrysophanic acid (Chrysophanol)] + C=CCn1c(=O)c2cnc(Nc3ccc(N4CCN(C)CC4)cc3)nc2n1-c1cccc(C(C)(C)O)n1 [MK1775] | inactive: -0.254 |
| NC(N)=NC(N)=Nc1cccc(Cl)c1 [1-(m-Chlorophenyl)-biguanide hydrochloride] + C=CCn1c(=O)c2cnc(Nc3ccc(N4CCN(C)CC4)cc3)nc2n1-c1cccc(C(C)(C)O)n1 [MK1775] | inactive: 0.882 |
| COc1cc(C(=O)NC(=S)Nc2cccc(NC(=O)c3ccccc3)c2)cc(OC)c1OC + C=CCn1c(=O)c2cnc(Nc3ccc(N4CCN(C)CC4)cc3)nc2n1-c1cccc(C(C)(C)O)n1 [MK1775] | inactive: -0.125 |
| C(=C\c1ccccc1)/CN1CCN(C(c2ccccc2)c2ccccc2)CC1 [Cinnarizine] + C=CCn1c(=O)c2cnc(Nc3ccc(N4CCN(C)CC4)cc3)nc2n1-c1cccc(C(C)(C)O)n1 [MK1775] | inactive: 0.531 |
| C[C@]1(O)C[C@@H](c2nc(-c3ccc4ccc(-c5ccccc5)nc4c3)c3c(N)nccn32)C1 [Linsitinib (OSI-906)] + C=CCn1c(=O)c2cnc(Nc3ccc(N4CCN(C)CC4)cc3)nc2n1-c1cccc(C(C)(C)O)n1 [MK1775] | inactive: -0.625 |

| SMILES | Z' of S-phase gammaH2AX difference (Z-score) |
| --- | --- |
| O=C(C1CCCCC1)N1CC(=O)N2CCc3ccccc3C2C1 (stereo not drawn) [Praziquantel] + C=CCn1c(=O)c2cnc(Nc3ccc(N4CCN(C)CC4)cc3)nc2n1-c1cccc(C(C)(C)O)n1 [MK1775] | inactive: -0.946 |
| O=C(O)c1cc(=O)cc(C(=O)O)[nH]1 [Chelidamic acid] + C=CCn1c(=O)c2cnc(Nc3ccc(N4CCN(C)CC4)cc3)nc2n1-c1cccc(C(C)(C)O)n1 [MK1775] | inactive: -0.214 |
| CN1CCc2c(cc(O)c(O)c2Cl)C(c2cccc(Cl)c2)C1 (stereo not drawn) + C=CCn1c(=O)c2cnc(Nc3ccc(N4CCN(C)CC4)cc3)nc2n1-c1cccc(C(C)(C)O)n1 [MK1775] | inactive: -1.2 |
| CNC(=O)c1cc(Oc2ccc(NC(=O)Nc3cc(C(C)(C)C)nn3-c3ccc4ncccc4c3)c(F)c2)ccn1 [DCC-2036 (Rebastinib)] + C=CCn1c(=O)c2cnc(Nc3ccc(N4CCN(C)CC4)cc3)nc2n1-c1cccc(C(C)(C)O)n1 [MK1775] | inactive: -0.811 |
| COc1ccc2c(c1)c(CC(=O)O)c(C)n2C(=O)c1ccc(Cl)cc1 [Indomethacin] + C=CCn1c(=O)c2cnc(Nc3ccc(N4CCN(C)CC4)cc3)nc2n1-c1cccc(C(C)(C)O)n1 [MK1775] | inactive: 0.153 |
| Nc1nc2ccc(OC(F)(F)F)cc2s1 [Riluzole] + C=CCn1c(=O)c2cnc(Nc3ccc(N4CCN(C)CC4)cc3)nc2n1-c1cccc(C(C)(C)O)n1 [MK1775] | inactive: 0.658 |
| CC(C)C[C@H](NC(=O)[C@H](O)[C@H](N)Cc1ccccc1)C(=O)O [Epibestatin hydrochloride] + C=CCn1c(=O)c2cnc(Nc3ccc(N4CCN(C)CC4)cc3)nc2n1-c1cccc(C(C)(C)O)n1 [MK1775] | inactive: 0.104 |
| CNC(=O)c1cc(Oc2ccc(NC(=O)Nc3ccc(Cl)c(C(F)(F)F)c3)c(F)c2)ccn1 [Regorafenib (BAY 73-4506)] + C=CCn1c(=O)c2cnc(Nc3ccc(N4CCN(C)CC4)cc3)nc2n1-c1cccc(C(C)(C)O)n1 [MK1775] | inactive: -0.481 |
| C/C=C1\C(=O)C[C@H]2[C@@H]3CCC4=CC(=O)CC[C@]4(C)[C@H]3CC[C@]12C [(Z)-Gugglesterone] + C=CCn1c(=O)c2cnc(Nc3ccc(N4CCN(C)CC4)cc3)nc2n1-c1cccc(C(C)(C)O)n1 [MK1775] | inactive: 0.61 |
| COc1ccc2c(c1OC)C(=O)O[C@@H]2[C@H]1c2c(cc3c(c2OC)OCO3)CCN1C [Noscapine hydrchloride] + C=CCn1c(=O)c2cnc(Nc3ccc(N4CCN(C)CC4)cc3)nc2n1-c1cccc(C(C)(C)O)n1 [MK1775] | inactive: -0.272 |
| CCCCCCCCCCCCCCCC(=O)OC(CC(=O)O)C[N+](C)(C)C (racemic) [Palmitoyl-DL-Carnitine chloride] + C=CCn1c(=O)c2cnc(Nc3ccc(N4CCN(C)CC4)cc3)nc2n1-c1cccc(C(C)(C)O)n1 [MK1775] | inactive: -0.471 |
| O=C(Nc1ccccc1-c1cn2c(CN3CCNCC3)csc2n1)c1cnc2ccccc2n1 + C=CCn1c(=O)c2cnc(Nc3ccc(N4CCN(C)CC4)cc3)nc2n1-c1cccc(C(C)(C)O)n1 [MK1775] | inactive: -0.759 |
| CC1(NC(=O)CBr)CCC(C(C)(C)NCC(O)COc2cccc3[nH]ccc23)CC1 (stereo not drawn) [(?)-Pindobind] + C=CCn1c(=O)c2cnc(Nc3ccc(N4CCN(C)CC4)cc3)nc2n1-c1cccc(C(C)(C)O)n1 [MK1775] | inactive: 0.286 |
| O=C(CCc1ccc(O)cc1)c1c(O)cc(O)cc1O [Phloretin] + C=CCn1c(=O)c2cnc(Nc3ccc(N4CCN(C)CC4)cc3)nc2n1-c1cccc(C(C)(C)O)n1 [MK1775] | inactive: -1.66 |
| O=C(CCc1ccc(O)cc1)c1c(O)cc(O)cc1O [Phloretin (Dihydronaringenin)] + C=CCn1c(=O)c2cnc(Nc3ccc(N4CCN(C)CC4)cc3)nc2n1-c1cccc(C(C)(C)O)n1 [MK1775] | inactive: -0.224 |
| CN1CCN(CCCN2c3ccccc3Sc3ccc(C(F)(F)F)cc32)CC1 [Trifluoperazine dihydrochloride] + C=CCn1c(=O)c2cnc(Nc3ccc(N4CCN(C)CC4)cc3)nc2n1-c1cccc(C(C)(C)O)n1 [MK1775] | inactive: -0.267 |
| CNC[C@H](O)c1ccc(O)c(O)c1 [(-)-Epinephrine bitartrate] + C=CCn1c(=O)c2cnc(Nc3ccc(N4CCN(C)CC4)cc3)nc2n1-c1cccc(C(C)(C)O)n1 [MK1775] | inactive: 0.114 |
| CCc1cc(Nc2nccc(-c3c(-c4ccc(OC)c(C(=O)Nc5c(F)cccc5F)c4)nc4ccccn34)n2)c(OC)cc1N1CCC(N2CCN(S(C)(=O)=O)CC2)CC1 + C=CCn1c(=O)c2cnc(Nc3ccc(N4CCN(C)CC4)cc3)nc2n1-c1cccc(C(C)(C)O)n1 [MK1775] | inactive: 0.254 |
| Nc1ccn([C@H]2CC[C@@H](CO)O2)c(=O)n1 [2',3'-dideoxycytidine] + C=CCn1c(=O)c2cnc(Nc3ccc(N4CCN(C)CC4)cc3)nc2n1-c1cccc(C(C)(C)O)n1 [MK1775] | inactive: -0.323 |
| CCCCCCCCCCCCCCC[C@H](O)[C@H](N)CO (racemic) [DL-erythro-Dihydrosphingosine] + C=CCn1c(=O)c2cnc(Nc3ccc(N4CCN(C)CC4)cc3)nc2n1-c1cccc(C(C)(C)O)n1 [MK1775] | inactive: -0.751 |
| CN(C)CCOC(C)(c1ccccc1)c1ccccn1 (stereo not drawn) [Doxylamine succinate] + C=CCn1c(=O)c2cnc(Nc3ccc(N4CCN(C)CC4)cc3)nc2n1-c1cccc(C(C)(C)O)n1 [MK1775] | inactive: 0.838 |
| COc1cccc(-c2cc(=O)c3ccccc3o2)c1N + C=CCn1c(=O)c2cnc(Nc3ccc(N4CCN(C)CC4)cc3)nc2n1-c1cccc(C(C)(C)O)n1 [MK1775] | inactive: -0.116 |
| CC(C)(C#N)c1cc(Cn2cncn2)cc(C(C)(C)C#N)c1 [Anastrozole] + C=CCn1c(=O)c2cnc(Nc3ccc(N4CCN(C)CC4)cc3)nc2n1-c1cccc(C(C)(C)O)n1 [MK1775] | inactive: 0.147 |
| COc1cc2nccc(Oc3ccc(NC(=O)Nc4cc(C)on4)c(Cl)c3)c2cc1OC [Tivozanib (AV-951)] + C=CCn1c(=O)c2cnc(Nc3ccc(N4CCN(C)CC4)cc3)nc2n1-c1cccc(C(C)(C)O)n1 [MK1775] | inactive: -0.22 |
